The series in a line: general procedure: solution-phase peptide synthesis.

“γ-Aldehyde of tert-butyloxycarbonyl-L-glutaminyl-L-glutaminyl-L-isoleucyl-L-valine” gave a step yield (late stage modification step) of 25%.

In turn, “tert-Butyloxycarbonyl-L-glutaminyl-L-glutaminyl-L-isoleucyl-L-valine Methyl Ester” came in with a step yield (coupling step) of 80%.

Turning to “tert-Butyloxycarbonyl-L-glutaminyl-L-glutaminyl-L-isoleucyl-L-valine”, for the setting “late stage modification step”, the step yield was 39%.

For the origin of these results see patent US20020132776A1 (N-Zyme Biotech GmbH, priority 2000, published 2002).
